Results on 2 substances are retold here after paper PMC3815101.

The chains behind the UniProt entries cited, without tags or fusion partners. Residues count along the entry.
UniProt P08592, residues 18-770: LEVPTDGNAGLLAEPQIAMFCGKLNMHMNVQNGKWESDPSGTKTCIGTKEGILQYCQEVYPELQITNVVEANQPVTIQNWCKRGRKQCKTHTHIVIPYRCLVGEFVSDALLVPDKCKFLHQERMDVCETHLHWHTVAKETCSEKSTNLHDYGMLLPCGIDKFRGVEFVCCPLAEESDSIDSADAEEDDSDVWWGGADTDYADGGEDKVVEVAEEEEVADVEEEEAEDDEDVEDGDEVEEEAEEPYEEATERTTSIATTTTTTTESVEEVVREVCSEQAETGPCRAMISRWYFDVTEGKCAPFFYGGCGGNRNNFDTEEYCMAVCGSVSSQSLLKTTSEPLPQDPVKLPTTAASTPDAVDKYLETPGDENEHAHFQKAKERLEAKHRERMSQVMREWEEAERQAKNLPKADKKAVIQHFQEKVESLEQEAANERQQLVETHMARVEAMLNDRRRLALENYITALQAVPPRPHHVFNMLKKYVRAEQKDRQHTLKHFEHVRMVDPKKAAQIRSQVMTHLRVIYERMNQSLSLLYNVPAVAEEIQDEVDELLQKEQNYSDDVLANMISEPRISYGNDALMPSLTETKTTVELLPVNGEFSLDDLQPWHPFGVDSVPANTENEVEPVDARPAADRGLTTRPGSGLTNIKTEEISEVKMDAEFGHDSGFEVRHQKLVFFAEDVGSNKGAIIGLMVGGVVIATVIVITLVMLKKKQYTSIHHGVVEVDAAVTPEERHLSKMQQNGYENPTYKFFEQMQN
UniProt P35739, residues 33-799: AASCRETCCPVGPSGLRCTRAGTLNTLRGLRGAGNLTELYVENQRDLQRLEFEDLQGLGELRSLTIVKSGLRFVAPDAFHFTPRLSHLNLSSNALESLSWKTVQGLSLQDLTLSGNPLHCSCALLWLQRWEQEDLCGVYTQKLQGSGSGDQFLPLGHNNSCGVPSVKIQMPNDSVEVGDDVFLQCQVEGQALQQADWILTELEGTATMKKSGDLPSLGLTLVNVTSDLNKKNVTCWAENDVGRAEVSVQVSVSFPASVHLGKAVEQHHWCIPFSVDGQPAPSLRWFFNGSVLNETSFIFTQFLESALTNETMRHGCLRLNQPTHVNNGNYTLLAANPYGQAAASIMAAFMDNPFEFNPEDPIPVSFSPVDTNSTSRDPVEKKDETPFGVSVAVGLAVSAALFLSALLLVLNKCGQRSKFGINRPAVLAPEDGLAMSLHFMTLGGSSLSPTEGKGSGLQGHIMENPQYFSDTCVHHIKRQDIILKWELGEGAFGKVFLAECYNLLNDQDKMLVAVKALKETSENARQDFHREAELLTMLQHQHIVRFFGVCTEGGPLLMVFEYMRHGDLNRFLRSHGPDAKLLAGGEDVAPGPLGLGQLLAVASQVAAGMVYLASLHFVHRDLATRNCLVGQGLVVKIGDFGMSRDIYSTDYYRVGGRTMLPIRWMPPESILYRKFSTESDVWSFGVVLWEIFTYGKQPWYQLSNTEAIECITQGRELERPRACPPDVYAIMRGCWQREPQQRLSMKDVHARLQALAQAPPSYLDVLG
UniProt P07174, residues 30-425: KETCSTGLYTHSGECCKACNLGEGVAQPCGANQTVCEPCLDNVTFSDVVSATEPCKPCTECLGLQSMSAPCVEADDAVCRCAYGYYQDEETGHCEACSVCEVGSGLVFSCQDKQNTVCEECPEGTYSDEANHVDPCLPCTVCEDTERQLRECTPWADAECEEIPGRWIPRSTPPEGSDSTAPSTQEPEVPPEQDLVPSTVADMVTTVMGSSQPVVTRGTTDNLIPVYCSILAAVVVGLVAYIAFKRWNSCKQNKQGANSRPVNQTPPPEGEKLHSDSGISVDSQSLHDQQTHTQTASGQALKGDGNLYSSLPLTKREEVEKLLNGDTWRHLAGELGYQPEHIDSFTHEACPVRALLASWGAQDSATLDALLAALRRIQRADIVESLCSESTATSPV

In the assay the target is β-amyloid precursor protein (APP) (rat (endogenous in PC12)) (UniProt P08592). Put plainly: co-IP; PC12 cells lysed with CelLytic M Cell Lysis Reagent and protease inhibitor cocktail; equal amounts of lysate incubated with rabbit IgG, mIgG, APP antibodies (22C11, 369), TrkA antibodies (1-3) or p75NTR antibodies (1-2) and rProtein A-sepharose beads; Western blotting.

These are yes or no findings as the source states them, for the method shown. Binding seen in cells or lysates may run through a third protein. Some binding calls cover weakened binding; strength is not graded here.

Consider “TrkA (from UniProt P35739 33-799) (receptor)”, for which the binding result is listed as “binds”. For “p75NTR (from UniProt P07174 30-425) (receptor)” the value was “binds”.
